Test results published in PubChem BioAssay AID463116 (University of Pittsburgh Molecular Library Screening Center, 2010).
Some of the results follow. Shown are side measurements of this screen, not its main read-out; they come without a call. The list favours compounds with an active or inconclusive main result.

Assay: blockers of dexamethasone-driven GR-EGFP nuclear import – imaging, high-content imaging, GR-EGFP cells, confirmation (AID 463116)
Settings: 3617.4 GR-EGFP nuclear translocation imaging, dexamethasone-induced; measured here: cell count per field; at 20 µM

| SMILES | z-score |
| --- | --- |
| COc1ccc(CC(=O)n2[nH]c(=O)cc(C)c2=O)cc1OC | -0.852 |
| CC(C)(C)OC(=O)NCCc1nnc(S(=O)(=O)Cc2ccc(Cl)cc2Cl)o1 | 1.32 |
| Cc1ccc(-c2nn(-c3ccccc3)cc2CO)o1 | 0.154 |
| CC(C)Cc1nc2oc3c(Cl)ncnc3c2c2c1CCCC2 | -0.85 |
| CCOC(=O)c1c(NC(=O)/C=C/C(=O)O)sc(C)c1-c1ccc(Cl)cc1 | 0.645 |
| COc1ccccc1-c1cc(C(F)(F)F)nc(S(C)(=O)=O)n1 | -1.2 |
| CS(=O)(=O)c1nc(-c2ccc(Br)cc2)cc(-c2ccccc2)c1C#N | -0.477 |
| O=C(CN(c1cccc(C(F)(F)F)c1)S(=O)(=O)c1ccc(Cl)c([N+](=O)[O-])c1)NCc1ccccc1Cl | 0.245 |
| Nc1nc(Sc2c([N+](=O)[O-])cc(C(F)(F)F)cc2[N+](=O)[O-])n[nH]1 | 0.335 |
| Cc1cccc(C2=NC(C(F)(F)F)(C(F)(F)F)c3c(n(-c4ccc(F)cc4)c(=O)[nH]c3=O)N2)c1 | -5.54 |
| CCc1cc(OCCCCNCc2ccccc2)ccc1Cl | -3.73 |
| CCOC(=O)C(=Cc1cc(=O)c(OC)co1)C(=O)OCC | 0.82 |
| O=C1CSC(=S)N1Cc1cccnc1 | 0.231 |
| CN=c1scc(-c2cccs2)n1/N=C/c1ccc(O)c(O)c1O | 0.655 |
| COc1ccccc1C(=O)/C=C/c1ccc(N2CCCCC2)c([N+](=O)[O-])c1 | 0.00616 |
| COc1ccccc1NS(=O)(=O)c1cc([N+](=O)[O-])ccc1N/N=C/c1c(C)[nH]c2ccccc12 | -0.0945 |
| COC(=O)C1=C(C)N(Cc2ccco2)C(=O)/C1=C\c1ccc([N+](=O)[O-])cc1 | -0.62 |
| CC(C)(C)C(=O)/C(=C/c1ccncc1)n1cncn1 | -0.544 |
| Cc1ccc(-c2cc(C(F)F)nc(S(C)(=O)=O)n2)cc1 | 0.664 |
| O=C1/C(=C/c2ccc(N3CCOCC3)o2)SC(=Nc2ccccc2)N1CCc1c[nH]c2ccccc12 | 0.256 |
| CCN(CC)CCCNC(=O)c1ccc2c(Cl)c3c(nc2c1)CCCC3 | 0.642 |
| O=C(Oc1ccccc1C(=O)Nc1ccccc1)c1ccc(Br)c([N+](=O)[O-])c1 | -0.158 |
| OC(CNCCc1ccc(C(F)(F)F)cc1)COc1ccc2ccccc2c1 (stereo not drawn) | -5.09 |
| O=C1ON=C(c2ccccc2)/C1=C/c1ccc(-c2ccccc2[N+](=O)[O-])o1 | 0.512 |
| CCOC(=O)c1c(C)oc2c1c(C(c1ccncc1)N1CCOCC1)c(O)c1ccccc12 (stereo not drawn) | 1.1 |
| O=C(/C=C/c1ccncc1)c1ccc2c(c1)OCCO2 | 0.201 |
| O=C(CCl)N1N=C(c2cccs2)CC1c1ccco1 (stereo not drawn) | 0.101 |

| SMILES | z-score |
| --- | --- |
| CCOc1ccc2noc3c2c1C(=O)c1ccccc1-3 | 0.93 |
| CC1(C)CC(N=c2cc(-c3ccccc3)oc3ccc(Cl)cc23)CC(C)(C)N1 | -5.6 |
| CN1CCN(C2=C(Cl)C(=O)N(c3ccc(Cl)c(Cl)c3)C2=O)CC1 | -0.192 |
| O=c1c(Cl)c(Cl)cnn1-c1ccccc1 | 0.133 |
| C=C1C(=O)[C@@]23[C@H](O)C[C@@H]4C(C)(C)CC[C@H](O)[C@@]4(C)[C@@H]2CC[C@@H]1[C@H]3O | 0.0872 |
| Cn1c(=O)c(NCCc2ccccc2)c2c3c(cccc31)C(=O)c1ccccc1-2 | 0.228 |
| O=c1c(Cl)c(Cl)cnn1Cc1nnc(-c2ccc(Cl)cc2)o1 | 0.0228 |
| O=C(CCN1CCN(c2ccccc2F)CC1)c1ccc(Br)cc1 | 0.0471 |
| O=[N+]([O-])c1ccc2c(c1)N([O-])C1(CCCCC1)[N+]2=O | 0.611 |
| Nc1cccc2c1C(=O)N(C(=O)/C=C/c1cccc(F)c1)C2=O | 0.318 |
| CC1=Nc2ccccc2/C1=C/c1nc(-c2ccc(C)s2)oc1O | 0.886 |
| CCOC(=O)c1c(NC(=S)N2CCCCC2)sc2c1CCN(C(=O)OCC)C2 | 0.000272 |
| CC(C)COc1cc(=O)[nH]c(SCC(C)C)n1 | 0.0278 |
| O=C(c1nnsc1S(=O)c1ccc(Cl)cc1)N1CCOCC1 (stereo not drawn) | -0.539 |
| Cc1ccc(-c2csc3nc(C)n(-n4c(C)ccc4C)c(=O)c23)o1 | -0.116 |
| COC(=O)C(=Cc1ccccc1[N+](=O)[O-])C(=O)OC | -0.415 |
| CCCCCCc1cc2cc(-c3nnc(-c4ccccc4O)o3)c(=O)oc2cc1O | -0.147 |
| COCCOC(=O)/C(=C\c1cc(C(C)(C)C)c(O)c(C(C)(C)C)c1)C(C)=O | -0.584 |
| COc1ccc(S(=O)(=O)Nc2ccc(O)c3ccccc23)cc1 | -0.284 |
| CCCS(=O)(=O)c1nnnn1-c1cccc(OC)c1 | 0.391 |
| CN1CCN(S(=O)(=O)c2ccc(Sc3nnnn3-c3ccccc3)c([N+](=O)[O-])c2)CC1 | -0.772 |
| Nc1c(C(=O)C2CC2)sc2nc(-c3cccs3)cc(C(F)(F)F)c12 | 0.00567 |
| O=C(NCc1cccnc1)/C(=C/c1ccc(-c2ccc(Cl)cc2)o1)S(=O)(=O)c1ccccc1 | -0.459 |
| COc1ccc(C(=O)C(CN2CCOCC2)c2ccccc2)cc1F (stereo not drawn) | 0.21 |
| CCCC(=O)OCCNc1cc(SCc2ccco2)c2nonc2c1[N+](=O)[O-] | -0.0753 |
| CCOc1cc(CNCCCN2CCOCC2)cc(Br)c1OCc1ccccc1Cl | -5.64 |
